# Experimental data from PubChem BioAssay AID1347076 (National Center for Advancing Translational Sciences (NCATS), 2019).
# The whole screen tested about 400,000 compounds, of which about 13,000 (3.2%) were called active. Inconclusive results, whose numbers are uncertain, are shown with a selection of clear calls. Calls come from the whole dose curve; as a rule, active = well fitted cell-killing curve with a large enough effect; inconclusive = small, poorly fitted or top-dose-only effect, or effect the other way; inactive = flat fitted curve, though single readings scatter. Potencies beside an inconclusive call are fits to weak or partial responses and may not hold up.
# Test: qHTS assay for MDR1-selective chemotherapeutics: Primary screen using the drug-selected MDR subline cells KB-V1; note: nearly all actives have a fitted effect of over 60% in size
# Conditions: KB-V1 MDR cells viability, CellTiter-Glo, 72 h; activity change, negative = cytotoxicity: at 46.1 µM (top of the series)
# Outline: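 Readout: CellTiter-Glo luminescence, 10 min after addition. Cells: KB-V1 MDR subline, 72 h at 37 degrees C with compound. Analysis: corrected, normalized data fitted to concentration-effect curves.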
# % is set by controls: 0 for no effect and ±100 for the full control effect; potency is the fitted concentration of half-maximal effect.
Structure (SMILES),"activity change, negative = cytotoxicity",Potency
NS(=O)(=O)c1ccc(CNC(=O)c2ccc(NS(=O)(=O)c3cccs3)cc2)cc1,inactive: 10%,–
O=S(=O)(CCOc1ccccc1)N1CCOCC1,–,"inconclusive: 9.2 µM [rising, partial curve]"
O=C1N/C(=C/c2ccc(Br)cc2)C(O)=C1C=NCc1ccccc1,–,"inconclusive: 9.2 µM [cytotoxic, partial curve, poor fit]"
CCOC(=O)c1c(NC(=O)CSc2cn(CCNC(=O)c3ccc(OC)c(OC)c3)c3ccccc23)sc2c1CCCC2,inactive: 11.3%,–
CCOC(=O)c1nnn(-c2nonc2N)c1CN1CCCC1,inconclusive: 30.1%,–
CN(C(=O)COC(=O)c1c2c(nc3ccccc13)/C(=C/c1cccc([N+](=O)[O-])c1)CCC2)C1CCS(=O)(=O)C1 (centres undefined),–,"inconclusive: 18.4 µM [cytotoxic, partial curve]"
O=C([C@H]1O[C@@H](n2ccc(=O)[nH]c2=O)[C@H](O)[C@@H]1O)N1CCN(Cc2ccccn2)CC1,inactive: 9.47%,–
CCN1CCc2nc3sc(C(=O)N4CCc5ccccc5C4)c(N)c3cc2C1,–,"inconclusive: 18.4 µM [cytotoxic, partial curve]"
O=C(Oc1ccc(O)cc1)C12CC3CC(CC(C3)C1)C2,–,"inconclusive: 29.1 µM [rising, single point]"
O=C(CN(Cc1ccccc1Cl)C(=O)c1csnn1)NCCc1ccccc1,–,"inconclusive: 16.4 µM [cytotoxic, single point]"
CCOC(=O)C1=C(Nc2ccccc2)CC(C)(O)C(C(=O)OCC)C1c1ccc(Br)cc1 (centres undefined),–,active: 23.1 µM
O=C1NC[C@@H](CCCCN2C[C@H](Cc3ccccc3)N(CC3CCCCC3)C(=O)C2=O)N(CCc2ccccc2)C1=O,inactive: 120%,–
CCC(C)n1ncn(-c2ccc(N3CCN(c4ccc(OCC5COC(Cn6cncn6)(c6ccc(Cl)cc6Cl)O5)cc4)CC3)cc2)c1=O (centres undefined),–,"inconclusive: 6.51 µM [cytotoxic, partial curve]"
COc1cccc(CN(C)CC(=O)NC(=O)NCc2ccccc2)c1,–,active: 20.6 µM
CCOC(=O)C1=CCN(S(=O)(=O)c2ccc(F)cc2)C1c1ccc(Cl)c(Cl)c1 (centres undefined),–,"inconclusive: 20.6 µM [cytotoxic, single point]"
Cc1cccc(C)c1CC(=O)N1CCOCC1,inactive: 69.3%,–
COc1ccc(-c2cc(-c3nnc(COC(=O)C4CC4)o3)c3ccccc3n2)cc1OC,–,"inconclusive: 9.2 µM [cytotoxic, partial curve]"
COc1cccc(N2CCc3c(C)nc4ccc(Cl)cc4c32)c1,–,active: 16.4 µM
NNC(=O)C1CC1c1ccc(Cl)cc1 (centres undefined),inactive: 0.761%,–

# Two entries picked at random from those above:
Structure (SMILES),"activity change, negative = cytotoxicity",Potency
O=S(=O)(CCOc1ccccc1)N1CCOCC1,–,"inconclusive: 9.2 µM [rising, partial curve]"
COc1ccc(-c2cc(-c3nnc(COC(=O)C4CC4)o3)c3ccccc3n2)cc1OC,–,"inconclusive: 9.2 µM [cytotoxic, partial curve]"
